Laboratory results from US20090227575A1, “7H-PYRROLO[2,3-H]QUINAZOLINE COMPOUNDS, THEIR USE AS mTOR KINASE AND PI3 KINASE INHIBITORS, AND THEIR [sequence]” (Wyeth, priority 2008, published 2009).

Tests used:
[1] = target: human SMG-1 (hSMG-1) (Homo sapiens, UniProt Q96Q15); assay: hSMG-1 kinase assay (DELFIA); type: biochemical; conditions: read-out: hSMG1 IC50
[2] = target: Human mTOR (Homo sapiens, UniProt P42345); assay: mTOR kinase assay (DELFIA format, purified enzyme); type: biochemical; set-up: FLAG; conditions: read-out: TOR Kinase IC50

IC50 [1]: > 20 µM | IC50 [2]: 13.8 µM
SMILES: Cn1ccc2c3nc(-c4ccc(NC(=O)NCCC5=CCCCC5)cc4)nc(N4CCOCC4)c3ccc21 [Example 103, 1-(2-cyclohex-1-en-1-ylethyl)-3-[4-(7-methyl-4-morpholin-4-yl-7H-pyrrolo[2,3-h]quinazolin-2-yl)phenyl]urea]
